Experimental data as given in patent US20020049300A1.
These are yes or no findings as the source states them, for the method shown. Some binding calls cover weakened binding; strength is not graded here.

The chains behind the UniProt entries cited, without tags or fusion partners.
UniProt Q99836: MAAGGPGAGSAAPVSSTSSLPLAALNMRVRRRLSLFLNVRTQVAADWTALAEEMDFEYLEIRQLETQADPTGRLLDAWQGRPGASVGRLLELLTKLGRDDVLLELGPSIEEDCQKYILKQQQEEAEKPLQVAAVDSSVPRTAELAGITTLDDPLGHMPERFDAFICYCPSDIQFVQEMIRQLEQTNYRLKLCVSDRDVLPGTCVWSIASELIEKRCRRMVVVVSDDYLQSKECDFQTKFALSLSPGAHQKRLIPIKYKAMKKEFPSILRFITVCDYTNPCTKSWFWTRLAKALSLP

Biological target: MyD88 (UniProt Q99836)
Test: coexpression and in vitro binding assays (no details given)

binding: binds
B1: human IRAK3 polypeptide (enzyme)
chain: MAGNCGARGALSAHTLLFDLPPALLGELCAVLDSCDGALGWRGLAERLSSSWLDVRHIEKYVDQGKSGTRELLWSWAQKNKTIGDLLQVLQEMGHRRAIHLITNYGAVLSPSEKSYQEGGFPNILFKETANVTVDNVLIPEHNEKGVLLKSSISFQNIIEGTRNFHKDFLIGEGEIFEVYRVEIQNLTYAVKLFKQEKKMQCKKHWKRFLSELEVLLLFHHPNILELAAYFTETEKFCLIYPYMRNGTLFDRLQCVGDTAPLPWHIRIGILIGISKAIHYLHNVQPCSVICGSISSANILLDDQFQPKLTDFAMAHFRSHLEHQSCTINMTSSSSKHLWYMPEEYIRQGKLSIKTDVYSFGIVIMEVLTGCRVVLDDPKHIQLRDLLRELMEKRGLDSCLSFLDKKVPPCPRNFSAKLFCLAGRCAATRAKLRPSMDEVLNTLESTQASLYFAEDPPTSLKSFRCPSPLFLENVPSIPVEDDESQNNNLLPSDEGLRIDRMTQKTPFECSQSEVMFLSLDKKPESKRNEEACNMPSSSCEESWFPKYIVPSQDLRPYKVNIDPSSEAPGHSCRSRPVESSCSSKFSWDEYEQYKKE
